The target of this assay is T1, GB1-6His-UIF (human) (UniProt Q96QD9).
T1 sequence: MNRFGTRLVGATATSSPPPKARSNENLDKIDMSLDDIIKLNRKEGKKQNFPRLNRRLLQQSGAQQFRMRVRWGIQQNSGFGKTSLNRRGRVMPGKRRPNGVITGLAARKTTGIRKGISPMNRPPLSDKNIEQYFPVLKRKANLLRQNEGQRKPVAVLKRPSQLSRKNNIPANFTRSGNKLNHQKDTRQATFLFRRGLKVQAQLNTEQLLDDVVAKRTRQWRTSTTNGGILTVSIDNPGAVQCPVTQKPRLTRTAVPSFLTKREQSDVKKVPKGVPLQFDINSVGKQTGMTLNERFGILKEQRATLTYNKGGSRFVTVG
Briefly: affinity purification with mass spectrometry; GB1-6His-UIF affinity chromatography with a control GB1 tag; retained proteins separated by SDS-PAGE and identified by mass spectrometry; only the target purified.

The chains behind the UniProt entries cited, without tags or fusion partners.
UniProt Q08945: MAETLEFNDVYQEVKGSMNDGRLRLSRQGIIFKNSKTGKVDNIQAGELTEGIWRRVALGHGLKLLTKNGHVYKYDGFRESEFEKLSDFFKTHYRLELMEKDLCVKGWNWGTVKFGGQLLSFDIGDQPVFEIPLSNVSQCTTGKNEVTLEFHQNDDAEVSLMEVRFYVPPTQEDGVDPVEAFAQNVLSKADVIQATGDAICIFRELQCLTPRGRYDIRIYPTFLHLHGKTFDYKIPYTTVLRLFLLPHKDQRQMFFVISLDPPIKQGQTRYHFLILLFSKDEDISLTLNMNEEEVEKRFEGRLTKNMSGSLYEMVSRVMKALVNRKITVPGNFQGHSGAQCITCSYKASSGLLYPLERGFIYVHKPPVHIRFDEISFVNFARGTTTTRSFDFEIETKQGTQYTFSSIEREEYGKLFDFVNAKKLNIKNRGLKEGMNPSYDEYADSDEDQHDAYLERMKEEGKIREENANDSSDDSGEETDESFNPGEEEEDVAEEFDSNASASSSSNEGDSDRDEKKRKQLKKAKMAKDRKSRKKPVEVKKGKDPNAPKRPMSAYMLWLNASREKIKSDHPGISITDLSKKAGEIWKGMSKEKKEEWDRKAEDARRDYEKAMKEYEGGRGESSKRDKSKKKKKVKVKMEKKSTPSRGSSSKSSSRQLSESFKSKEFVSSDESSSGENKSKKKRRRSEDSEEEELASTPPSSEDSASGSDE
UniProt Q13838: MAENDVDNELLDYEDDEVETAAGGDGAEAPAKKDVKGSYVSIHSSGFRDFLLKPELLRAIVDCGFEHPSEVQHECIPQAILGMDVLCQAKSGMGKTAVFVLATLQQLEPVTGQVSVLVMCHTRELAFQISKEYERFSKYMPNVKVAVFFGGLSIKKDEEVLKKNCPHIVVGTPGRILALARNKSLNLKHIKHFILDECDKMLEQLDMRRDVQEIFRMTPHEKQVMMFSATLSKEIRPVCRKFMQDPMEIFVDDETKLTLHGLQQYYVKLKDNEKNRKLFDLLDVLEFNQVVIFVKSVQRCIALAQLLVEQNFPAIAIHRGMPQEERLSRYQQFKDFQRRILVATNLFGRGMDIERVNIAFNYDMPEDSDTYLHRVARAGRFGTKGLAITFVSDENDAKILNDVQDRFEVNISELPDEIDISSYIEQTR

For 2 substances, binding results are on record in PMC2828547, “UIF, a New mRNA Export Adaptor that Works Together with REF/ALY, Requires FACT for Recruitment to mRNA” (Current Biology, 2009).

Results are given in words; binding and its absence hold for the method and conditions named. Binding seen in cells or lysates may run through a third protein. These calls come from enrichment with a bait or labelling near it, and not all partners need be listed. Sequences can lack the tags named with a protein.

Regarding “SSRP1 (endogenous) (from UniProt Q08945 1-709)”, the binding entry was “binds”.
Then “UAP56 (endogenous, retained on GB1-6His-UIF) (from UniProt Q13838 1-428)”, with “binds”.
